## Screening data

From PubChem BioAssay record AID1159506 (NCATS, 2015).

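Genome-wide siRNA knockdown in TC32 Ewing sarcoma cells, comparing luciferase light from an NR0B1-promoter reporter with a CMV-promoter reporter 48 hours after transfection. Each siRNA was applied at 20 nM. A z-score of the log NR0B1-over-CMV signal, less the median of siRNAs with the same seed; more negative means a stronger specific loss of the NR0B1 reporter.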

The strongest results of the screen are mostly left out here. Sequences are the guide (antisense) strand, without overhang.

strand: UGAUCAAUCUUGGAGAUGG
target gene: LSP1
seed-corrected z-score: -0.695

strand: UUGUAGAUAAGUGUCCCAC
target gene: DCBLD2
seed-corrected z-score: -1.177

strand: UGUGAAUGCAGGUAACACC
target gene: MDP1
seed-corrected z-score: -0.5249

strand: AAUCAUAUUCACCACUUCC
target gene: TIMM21
seed-corrected z-score: 0.03825

strand: UAUAGUGCGUGUCCAAGCG
target gene: LOC390877
seed-corrected z-score: -0.6668

strand: UUAAGGUCGGCAGGUAUCC
target gene: AXIN1
seed-corrected z-score: 0.7933

strand: UCUUGUUGAAGAUGCAGCG
target gene: POMGNT2
seed-corrected z-score: -0.04036

strand: UUGGUAUUGCAAAAGAACU
target gene: LOC401218
seed-corrected z-score: 2.455

strand: UUUGUUCCGAACAAUCCGC
target gene: PLCL1
seed-corrected z-score: 1.728

strand: UAGGAGAUCCACACCAUUC
target gene: ARPC5
seed-corrected z-score: -0.2069

strand: UCGCAGCUCGUGAAUCUCC
target gene: EGFL8
seed-corrected z-score: 0.1691

strand: UCGUUUCAAAUUGAGAAGC
target gene: VAMP3
seed-corrected z-score: -0.01256

strand: AUAGUCAUAAUACUCGCCC
target gene: MYO15A
seed-corrected z-score: 0.3644

strand: AAAUGGACACGUCAAAUCU
target gene: RFPL1
seed-corrected z-score: -0.7314

strand: UUGAUAUAACUGUACAGCC
target gene: NAPG
seed-corrected z-score: 0.4132

strand: UCUUCGUCCACGAACUUGU
target gene: ARPC5
seed-corrected z-score: 0.1057

strand: UAUUGUCCCAUAAUUGCUC
target gene: SIDT1
seed-corrected z-score: 0.2207

strand: UCAUCCUUAAAUGAUAGUC
target gene: ADAM21
seed-corrected z-score: 0.3084

strand: UGACUUCCCACCUUGAACC
target gene: EEPD1
seed-corrected z-score: 1.631

strand: UACCAGCUCGGAGAACAGC
target gene: TRAPPC5
seed-corrected z-score: 2.167

strand: UCGGUAAACAUAACUCUCU
target gene: CTSB
seed-corrected z-score: -0.6723

strand: UAGUGGUCAAUUCUAGCAG
target gene: RBSN
seed-corrected z-score: -0.4606

strand: UUCUAUCUCAUCGUACAGG
target gene: CYFIP2
seed-corrected z-score: -0.2783

strand: UUUGAAGUAAUGGAGCUGC
target gene: MCFD2
seed-corrected z-score: -0.5976

strand: AUUAUAUCUUGAAUCAGUG
target gene: ZCWPW2
seed-corrected z-score: -0.02158

strand: AGUGUGAUCAGAGAAGGAC
target gene: TMEM132A
seed-corrected z-score: -0.8422

strand: UUCAUUAGAAUCGCGAAAG
target gene: CEP152
seed-corrected z-score: 0.5977

strand: UUAUCGACAAGUCGCAGGG
target gene: XPO6
seed-corrected z-score: 0.6348

strand: UACUGUAUACUCCAGGCUG
target gene: ICMT
seed-corrected z-score: -0.5051

strand: UUCAUUCGGAUCAAUAACG
target gene: LRRC4C
seed-corrected z-score: 0.5486

strand: UCUGCUACUAAGAUCAGGG
target gene: IRF2BP2
seed-corrected z-score: -0.5226

strand: UCUUCGAUCUGUGAUUUGC
target gene: HIP1
seed-corrected z-score: 1.29

strand: UGUACUUGCACAGUCUCUC
target gene: EIF3CL
seed-corrected z-score: 1.364

strand: UUGGGAACCAGGACAAUGC
target gene: CYP27A1
seed-corrected z-score: 0.01375

strand: UUAGGUAUUUCAACCAAAG
target gene: WDR41
seed-corrected z-score: 0.1271

strand: AUUGGUAGAAGAUCACGGG
target gene: FAM91A1
seed-corrected z-score: 1.568

strand: AAUGUUGUUUGGGACCUUC
target gene: TACR3
seed-corrected z-score: -0.337

strand: UAUAUCUUGAAGGGAAUCC
target gene: NUCB2
seed-corrected z-score: 0.4886

strand: UGUGGUACCAGGGCCAUUC
target gene: LOC388780
seed-corrected z-score: -0.142

strand: UUUGCACUGAAUCAUAGCC
target gene: ATP6V1H
seed-corrected z-score: 0.02579

strand: UACGCAAGAACUUUUUCCC
target gene: USP12
seed-corrected z-score: 0.298

strand: UUCUUCGCAACAUCCCUGU
target gene: VTI1A
seed-corrected z-score: -0.3325

strand: UUGUAGUCUAGGUCAUUGC
target gene: KLHL32
seed-corrected z-score: 0.02995

strand: UGCUUGUCCACAUAAUAGG
target gene: PHLDB1
seed-corrected z-score: -1.083

strand: AUGAGGACAAUGGUCAGGU
target gene: OR51D1
seed-corrected z-score: 0.2746

strand: UAGUAAGACAAAAAGAUCC
target gene: OR7E154P
seed-corrected z-score: 0.05739

strand: UUAGGCUGGAUGUUGUAGC
target gene: STON1-GTF2A1L
seed-corrected z-score: -0.8673

strand: UCGUUCAUCACGUUGCUGC
target gene: PREX1
seed-corrected z-score: -0.1994

strand: ACAAUAUCCGAGUUGGUUC
target gene: MEF2A
seed-corrected z-score: -0.1435

strand: AUCACAGUCCCUUUGCUCG
target gene: CST9L
seed-corrected z-score: -0.1401

strand: UGCUGAAAUGGUACAGAGC
target gene: KLK1
seed-corrected z-score: -0.2596

strand: UACUCAUCGAACACCAACC
target gene: ANXA6
seed-corrected z-score: 0.4605

strand: AAAGUUUUCCAUGCAUUCC
target gene: A4GNT
seed-corrected z-score: -0.4449

strand: UCAAACAACAGGGACAUCU
target gene: RASGRP2
seed-corrected z-score: 0.3738

strand: UACGUGGUGAAAGUCGUGC
target gene: RAX
seed-corrected z-score: -0.01224